In US10039751B2, “Reversing intestinal inflammation by inhibiting retinoic acid metabolism” (THE BOARD OF TRUSTEES OF THE LELAND STANFORD JUNIOR …, priority 2011, dated 2018):
For at least one compound, name, drawing or mass did not settle the structure.

System: APC^Min/+ mice
Assay: Drug treatment of APC^Min/+ mice: survival, body weight, hematocrit, polyp/tumor count
Details: 1500 ppm Celecoxib or 100 ppm Rosiglitazone in diet for 10 weeks

SMILES | body weight | survival (compared to base diet)
Cc1ccc(-c2cc(C(F)(F)F)nn2-c2ccc(S(N)(=O)=O)cc2)cc1 [Celecoxib] | gained weight steadily | 
CN(CCOc1ccc(CC2SC(=O)NC2=O)cc1)c1ccccn1 (stereo not drawn) [Rosiglitazone] | decreased comparably | reduced survival
